# According to PMC8306909:
# The chains behind the UniProt entries cited, without tags or fusion partners.
# UniProt Q16875: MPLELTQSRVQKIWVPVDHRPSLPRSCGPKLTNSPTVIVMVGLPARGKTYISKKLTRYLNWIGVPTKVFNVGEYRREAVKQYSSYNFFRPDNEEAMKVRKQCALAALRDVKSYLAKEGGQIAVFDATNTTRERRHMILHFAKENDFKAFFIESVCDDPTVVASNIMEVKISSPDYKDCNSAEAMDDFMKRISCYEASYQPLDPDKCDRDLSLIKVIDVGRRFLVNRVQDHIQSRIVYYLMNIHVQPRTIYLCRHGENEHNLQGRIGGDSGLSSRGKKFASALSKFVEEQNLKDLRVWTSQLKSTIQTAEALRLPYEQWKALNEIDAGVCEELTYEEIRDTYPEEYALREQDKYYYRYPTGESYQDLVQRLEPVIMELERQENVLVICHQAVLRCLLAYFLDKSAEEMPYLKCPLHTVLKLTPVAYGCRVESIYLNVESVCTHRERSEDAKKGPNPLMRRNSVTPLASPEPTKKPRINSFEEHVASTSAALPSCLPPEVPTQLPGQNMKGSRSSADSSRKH
# UniProt Q9BXW9: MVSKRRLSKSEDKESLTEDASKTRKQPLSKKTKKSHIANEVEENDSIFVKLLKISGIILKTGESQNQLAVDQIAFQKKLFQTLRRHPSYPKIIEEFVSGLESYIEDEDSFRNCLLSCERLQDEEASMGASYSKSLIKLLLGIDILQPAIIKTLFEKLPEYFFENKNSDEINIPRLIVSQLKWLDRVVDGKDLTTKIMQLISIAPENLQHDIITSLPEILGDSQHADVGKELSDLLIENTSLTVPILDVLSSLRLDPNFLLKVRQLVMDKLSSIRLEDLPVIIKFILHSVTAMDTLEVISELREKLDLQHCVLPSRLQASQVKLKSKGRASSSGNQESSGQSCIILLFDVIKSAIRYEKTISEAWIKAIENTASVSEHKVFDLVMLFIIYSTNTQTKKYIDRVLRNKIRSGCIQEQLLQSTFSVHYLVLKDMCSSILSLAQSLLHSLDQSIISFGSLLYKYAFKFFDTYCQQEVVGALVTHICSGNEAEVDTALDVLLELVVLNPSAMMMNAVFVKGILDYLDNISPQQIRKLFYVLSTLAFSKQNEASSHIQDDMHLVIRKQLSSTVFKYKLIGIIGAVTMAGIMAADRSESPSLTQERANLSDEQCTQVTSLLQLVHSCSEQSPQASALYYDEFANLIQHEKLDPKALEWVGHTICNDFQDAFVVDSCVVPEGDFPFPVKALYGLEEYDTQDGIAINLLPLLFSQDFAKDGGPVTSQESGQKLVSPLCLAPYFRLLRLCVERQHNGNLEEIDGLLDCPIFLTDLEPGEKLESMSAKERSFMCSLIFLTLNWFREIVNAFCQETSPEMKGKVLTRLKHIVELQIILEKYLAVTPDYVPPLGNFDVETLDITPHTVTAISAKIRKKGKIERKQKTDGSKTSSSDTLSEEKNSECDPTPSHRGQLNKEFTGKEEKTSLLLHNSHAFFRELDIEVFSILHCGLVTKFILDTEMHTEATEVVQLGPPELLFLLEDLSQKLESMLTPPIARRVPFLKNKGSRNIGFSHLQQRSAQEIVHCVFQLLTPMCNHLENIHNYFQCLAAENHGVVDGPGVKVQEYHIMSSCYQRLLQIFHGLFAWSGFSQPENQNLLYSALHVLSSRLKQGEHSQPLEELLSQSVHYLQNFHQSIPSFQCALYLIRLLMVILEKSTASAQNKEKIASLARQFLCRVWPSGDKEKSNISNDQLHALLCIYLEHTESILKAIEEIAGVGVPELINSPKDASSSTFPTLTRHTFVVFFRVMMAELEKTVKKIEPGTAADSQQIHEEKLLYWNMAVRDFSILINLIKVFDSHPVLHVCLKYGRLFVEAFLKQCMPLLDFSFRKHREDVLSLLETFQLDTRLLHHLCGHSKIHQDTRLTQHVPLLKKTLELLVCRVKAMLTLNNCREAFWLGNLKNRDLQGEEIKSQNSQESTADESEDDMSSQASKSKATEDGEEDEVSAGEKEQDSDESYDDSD
# These are yes or no findings as the source states them, for the method shown. Binding seen in cells or lysates may run through a third protein. Some binding calls cover weakened binding; strength is not graded here.
# Target: 6-phosphofructo-2-kinase/fructose-2,6,-bisphophatase 3 (PFKFB3) (human (endogenous in U2OS)) (UniProt Q16875)
# Assay: co-IP; chromatin fraction of U2OS cells; immunoprecipitation with rabbit anti-PFKFB3 or rabbit anti-BLM (2 ug/sample) on Dynabeads Protein G, immunoblot; cells treated with MMC, with or without PFKFB3i or ATR inhibitor
substance,measurement,value
FANCD2 (from UniProt Q9BXW9 1-1451),binding,binds
